Here are results for one sequence from publication PMC5996148.

The list shows a part of the results. For some assays here: The source does not settle which construct or isoform was used.

Among the test systems are Osteocalcin (human); P2RX1 (human); P2RXL1 (human); PADI3 (human); PAFAH1B2 (human); PAFAH1B3 (human); PAGE2 (human); PAGE5 (human); PALM (human); PALM2 (human); PANK1 (human); PANK2 (human); PANK4 (human); PAPOLA (human); PARD6B (human); PARP11 (human); PARVG (human); PBEF1 (human).
Assay in all cases: protein microarray (ProtoArray v5.0), streptavidin-Alexa Fluor 647
Settings in all cases: 3'-biotin; 20 mM Tris (pH 7.5), 5 mM MgCl2, 100 mM KCl, 0.1% Tween-20, A/T-rich and random oligonucleotide blockers; temperature not stated; high values mean tight binding

For assay [1], the system named is Ornithine decarboxylase (human).
The target in the next assay is T1, PAIP2 (UniProt Q9BPZ3).
T1 sequence: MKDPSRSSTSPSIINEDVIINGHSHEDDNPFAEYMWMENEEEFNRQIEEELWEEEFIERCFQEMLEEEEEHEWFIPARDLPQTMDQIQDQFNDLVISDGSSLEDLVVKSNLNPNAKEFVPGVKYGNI

In the case of “GGGAGGCTGAGGCAGG [G4-1 biotinylated (PQS2)]”, the binding signal in assay [1] is -0.353 z-score; in the assay on Osteocalcin (human) it was -0.333 z-score; with P2RX1 (human), -0.307 z-score; in the assay on P2RXL1 (human) it was -0.31 z-score; in the assay on PADI3 (human), -0.317 z-score; in the assay with PAFAH1B2 (human), -0.367 z-score. Further, the binding signal is -0.325 z-score in the assay on PAFAH1B3 (human); -0.341 z-score in the assay with PAGE2 (human); -0.346 z-score with PAGE5 (human); -0.294 z-score with PAIP2; -0.297 z-score in the assay on PALM (human); -0.339 z-score with PALM2 (human). The binding signal in the assay with PANK1 (human) was -0.34 z-score; with PANK2 (human), -0.317 z-score; in the assay with PANK4 (human) it was -0.339 z-score; in the assay on PAPOLA (human), -0.348 z-score; with PARD6B (human) it was -0.319 z-score; with PARP11 (human), -0.264 z-score. Moreover, the results for the binding signal in the assay with PARVG (human) and in the assay on PBEF1 (human) were -0.36 z-score and -0.335 z-score, respectively.
